Assay results reported in article PMC6965636.
No constants are given. Whether binding was seen depends on the method and setting. Binding seen in cells or lysates may run through a third protein. These calls come from enrichment with a bait or labelling near it, and not all partners need be listed. Sequences can lack the tags named with a protein.

Protein sequences, listed by entry. Tags and fused reporters are not part of them.
UniProt O15379: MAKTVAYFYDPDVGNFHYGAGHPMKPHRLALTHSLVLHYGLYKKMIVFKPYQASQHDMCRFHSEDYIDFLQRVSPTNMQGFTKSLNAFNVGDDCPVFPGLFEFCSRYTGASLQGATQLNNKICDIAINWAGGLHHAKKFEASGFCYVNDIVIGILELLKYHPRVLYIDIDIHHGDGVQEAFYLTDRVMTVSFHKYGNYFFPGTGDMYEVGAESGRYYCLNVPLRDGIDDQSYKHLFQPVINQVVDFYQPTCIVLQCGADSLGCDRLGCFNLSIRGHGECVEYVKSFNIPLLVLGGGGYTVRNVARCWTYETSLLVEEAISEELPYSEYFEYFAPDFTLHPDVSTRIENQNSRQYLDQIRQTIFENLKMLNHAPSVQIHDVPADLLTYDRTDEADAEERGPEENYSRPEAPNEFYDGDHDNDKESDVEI
UniProt P42224: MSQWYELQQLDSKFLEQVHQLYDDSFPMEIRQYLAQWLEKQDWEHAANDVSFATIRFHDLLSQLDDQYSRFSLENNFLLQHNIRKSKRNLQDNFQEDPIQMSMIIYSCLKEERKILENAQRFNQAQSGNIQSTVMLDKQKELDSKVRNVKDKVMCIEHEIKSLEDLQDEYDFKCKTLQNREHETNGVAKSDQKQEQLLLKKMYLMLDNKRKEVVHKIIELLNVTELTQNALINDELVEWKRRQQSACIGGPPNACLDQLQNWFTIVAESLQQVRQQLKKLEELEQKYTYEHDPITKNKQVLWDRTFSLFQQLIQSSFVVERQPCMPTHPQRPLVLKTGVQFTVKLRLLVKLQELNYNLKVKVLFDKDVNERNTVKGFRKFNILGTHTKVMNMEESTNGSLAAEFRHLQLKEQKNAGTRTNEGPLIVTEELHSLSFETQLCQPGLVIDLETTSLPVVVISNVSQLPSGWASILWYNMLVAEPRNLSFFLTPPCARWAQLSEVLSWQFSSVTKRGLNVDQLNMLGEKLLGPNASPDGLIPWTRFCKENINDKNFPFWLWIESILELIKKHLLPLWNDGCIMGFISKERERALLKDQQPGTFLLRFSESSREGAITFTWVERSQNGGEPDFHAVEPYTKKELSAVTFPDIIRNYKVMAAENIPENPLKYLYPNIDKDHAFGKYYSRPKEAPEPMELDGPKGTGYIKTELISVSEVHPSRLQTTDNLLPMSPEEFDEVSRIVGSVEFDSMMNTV

Target: T1, TKT-Flag (UniProt P29401)
T1 sequence: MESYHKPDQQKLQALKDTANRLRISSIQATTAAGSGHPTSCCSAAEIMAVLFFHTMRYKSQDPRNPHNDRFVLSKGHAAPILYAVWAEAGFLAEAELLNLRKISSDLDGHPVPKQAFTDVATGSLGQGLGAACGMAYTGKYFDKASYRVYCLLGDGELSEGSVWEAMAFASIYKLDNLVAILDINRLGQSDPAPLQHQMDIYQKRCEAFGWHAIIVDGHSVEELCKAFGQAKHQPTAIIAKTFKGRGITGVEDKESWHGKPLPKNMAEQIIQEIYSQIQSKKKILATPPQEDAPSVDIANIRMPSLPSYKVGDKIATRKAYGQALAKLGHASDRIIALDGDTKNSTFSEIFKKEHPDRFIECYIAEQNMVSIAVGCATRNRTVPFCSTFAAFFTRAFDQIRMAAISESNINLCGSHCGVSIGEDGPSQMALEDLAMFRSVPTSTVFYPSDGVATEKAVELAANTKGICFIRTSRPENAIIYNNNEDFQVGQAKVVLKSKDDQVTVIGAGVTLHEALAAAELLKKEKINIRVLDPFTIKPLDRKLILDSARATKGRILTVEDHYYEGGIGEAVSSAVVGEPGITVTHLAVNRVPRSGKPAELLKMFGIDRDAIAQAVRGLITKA
Experiment: affinity purification with mass spectrometry; SMMC-7721 cell lysates immunoprecipitated with the anti-Flag antibody and normal rabbit IgG (NC), SDS-PAGE, silver staining, mass spectrometry

Substance	binding
histone deacetylase 3 (HDAC3), endogenous (from UniProt O15379 1-428) (enzyme)	binds
signal transducer and activator of transcription 1 (STAT1), endogenous (from UniProt P42224 1-750)	binds
